Values quoted from earlier work in patent US7098204B2 (C.N.R.S., priority 1999, dated 2006).
At least one structure is not confirmed: it was looked up by name or label, or the drawing left a doubt.

Test system: 60 human tumor cell lines
Conditions: read-out: average IC50 over 60 human tumor cell lines (literature); cited from earlier work

For `Cn1cnc2c(NCc3ccccc3)nc(NCCO)nc21` [olomoucine], the IC50 is given as 60.3 µM.
